# Data: the supplement of paper PMC8728848
# The other results are listed elsewhere or left out.
# B1: Awp3 (Candida glabrata), B4UN32 (protein)
# chain: MISFVTLLAILGLLSISWADQTVRSVAGDQRVTDPVIVGDNSILDYYGGSNYDFSNNFEIGRGTLYIGKESYFSSFQSAPTDVPNSFHLLIKNTNNLQNNGQFIIENIKRHANQCSNSSIQVFPINFQNDGEFEIISGGVEGRCCLPTSVIAPQNFLNNGKFYYKVLTDTGSIYSGSCMQNVDIGASTTTTVNNNLWEFTGSINAQINGAVSGAAQINLDGSNMFVNANTFSGQVVNLINGGSFLQTSDPLSNIVVINGLGTSDTGVTSIAVKGKGKSFTYNPSSGIVKLTTVEGKTYAYQIGCGYNTKKFITNNDSGASYESADNFFVLTYSEPYSPQTCQLENSSIFSSNFISTSTSSSSSSSSASSLPSSMSSSLPSSLSSSLSSSLSSSMSSSMSSLFIIPPPYTTTRSSGSSIIDTEIVSFYSTTDSPGHTITGTTTTTLYGPHTHSSVSTPSSSSESSTTSNSSIESSSLPHTSVSSTPESSITPSSNTISSSPTSDFSSVQSSSIMESSSVVASSSVINSSSIVDSSSSSASSLPSSMSSSLSSSMSSSLPSSMSSSLSSSLSSSLSSSMSSSMSSLFIIPPPYTTTRSSGSSIIDTEIVSFYSTTDSPGHTITGTTTTTLYGPHTHSSVSTPSSSSESSTTSNSSIESSSLPHTSVSSTPESSITPSSNTISSSPTSDFSSVQSSSIMESSSVVASSSVINSSSIVDSSSSSASSLPSSMPSSLPSSMSSSLSSSMSSSLSSSLSSSLSSSMSSSMSSLFIIPPPYTTTRSSGSSIIDTEIVSFYSTTDSPGHTITGTTTTTLYGPHTHSSVSTPSSSSESSTTSNSSIESSSLPHTSVSSTPESSITPSSNTISSSPTSDFSSVQSSSIMESSSVVASSSATQSSSVINSSSIVDSSSSSASSLPSSMPSSLPSSLSSSLSSSLSSSMSSSMSSLFIIPPPYTTTRSSGSSIIDTEIVSFYSTTDSPGHTITGTTTTTLYESSIYSSSSSTIQESELSNTSRTTMTSNSSVSISSTSSRSSFSNTKSSTIVISQSASLPDSKTDIILSTSSNIGYSSRSLLSDLGTSISDSDIHHSVLHSTESYSSNESGTNPFTSIASLSNFIPESSSHTSTALGSENSVISSDILTTMSHPVATNSGDKPTTPKRSEQVSTTMTSSGPTPDTSSFDTDGMSAYSRPEFTTNSLEVNKSSTSQLGNNKQTFSNLQLESTRPHSENEVDNNTRLLQSIQQSSTYGTNNVNPLSPTGSISIPLTEDGQGDNNNWNSPATNDLCTQISFNLTATTITVTDRITITDSIHDISSEVITSYIYQTIVDQKTVTQTVDGKSLANKMSSIPKPSSRSLIQPQPPVAIELQEGAASTSRVSLVSLFISIILVLL
# Tests used:
# Test in all cases: glycan array binding signal (z-score within array); higher = stronger binding
# Conditions in all cases: glycan notation: IUPAC condensed, linker removed
# [1] = target: Neu5Ac(a2-3)Gal(b1-4)GlcNAc(b1-3)Gal(b1-4)GlcNAc(b1-3)Gal(b1-4)GlcNAc
# In short: (§1)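 The binding signal is a Z-score computed within each array and averaged over linkers. Arrays of the same protein sequence at different concentrations or buffers were also averaged together. Data originate from 3228 arrays in the Consortium for Functional Glycomics database, kept only where the protein sequence was available.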
# [2] = target: Neu5Ac(a2-3)Gal(b1-4)GlcNAc(b1-3)Gal(b1-4)GlcNAc(b1-3)Gal(b1-4)GlcNAc(b1-2)Man(a1-3)[Neu5Ac(a2-3)Gal(b1-4)GlcNAc(b1-3)Gal(b1-4)GlcNAc(b1-3)Gal(b1-4)GlcNAc(b1-2)Man(a1-6)]GalNAc
# In short: as §1
# [3] = target: Neu5Ac(a2-3)Gal(b1-4)GlcNAc(b1-3)Gal(b1-4)GlcNAc(b1-3)GalNAc
# In short: as §1
# [4] = target: Neu5Ac(a2-3)Gal(b1-4)GlcNAc(b1-3)Gal(b1-4)GlcNAc(b1-3)[Neu5Ac(a2-3)Gal(b1-4)GlcNAc(b1-3)Gal(b1-4)GlcNAc(b1-6)]GalNAc
# In short: as §1
# [5] = target: Neu5Ac(a2-3)Gal(b1-4)GlcNAc(b1-3)Gal(b1-4)GlcNAc(b1-6)[Gal(b1-3)]GalNAc
# In short: as §1
# [6] = target: Neu5Ac(a2-3)Gal(b1-4)GlcNAc(b1-3)Gal(b1-4)[Fuc(a1-3)]GlcNAc
# In short: as §1
# [7] = target: Neu5Ac(a2-3)Gal(b1-4)GlcNAc(b1-3)GalNAc
# In short: as §1
# [8] = target: Neu5Ac(a2-3)Gal(b1-4)GlcNAc(b1-3)[Neu5Ac(a2-3)Gal(b1-4)GlcNAc(b1-6)]GalNAc
# In short: as §1
# [9] = target: Neu5Ac(a2-3)Gal(b1-4)GlcNAc(b1-6)GalNAc
# In short: as §1
# [10] = target: Neu5Ac(a2-3)Gal(b1-4)GlcNAc(b1-6)[Gal(b1-3)]GalNAc
# In short: as §1
# [11] = target: Neu5Ac(a2-3)Gal(b1-4)GlcNAc(b1-6)[Neu5Ac(a2-3)Gal(b1-3)]GalNAc
# In short: as §1
# [12] = target: Neu5Ac(a2-3)Gal(b1-4)GlcNAc6S
# In short: as §1
# [13] = target: Neu5Ac(a2-3)Gal(b1-4)[Fuc(a1-3)]GlcNAc
# In short: as §1
# [14] = target: Neu5Ac(a2-3)Gal(b1-4)[Fuc(a1-3)]GlcNAc(b1-2)Man
# In short: as §1
# [15] = target: Neu5Ac(a2-3)Gal(b1-4)[Fuc(a1-3)]GlcNAc(b1-3)Gal
# In short: as §1
# [16] = target: Neu5Ac(a2-3)Gal(b1-4)[Fuc(a1-3)]GlcNAc(b1-3)Gal(b1-4)GlcNAc
# In short: as §1
# [17] = target: Neu5Ac(a2-3)Gal(b1-4)[Fuc(a1-3)]GlcNAc(b1-3)Gal(b1-4)[Fuc(a1-3)]GlcNAc(b1-3)Gal(b1-4)[Fuc(a1-3)]GlcNAc
# In short: as §1
# [18] = target: Neu5Ac(a2-3)Gal(b1-4)[Fuc(a1-3)]GlcNAc(b1-3)GalNAc
# In short: as §1
# [19] = target: Neu5Ac(a2-3)Gal(b1-4)[Fuc(a1-3)]GlcNAc(b1-6)[Gal(b1-3)]GalNAc
# In short: as §1
# [20] = target: Neu5Ac(a2-3)Gal(b1-4)[Fuc(a1-3)]GlcNAc(b1-6)[Neu5Ac(a2-3)Gal(b1-3)]GalNAc
# In short: as §1
# [21] = target: Neu5Ac(a2-3)Gal(b1-4)[Fuc(a1-3)]GlcNAc6S
# In short: as §1
# [22] = target: Neu5Ac(a2-3)Gal6S(b1-4)GlcNAc
# In short: as §1
# [23] = target: Neu5Ac(a2-3)Gal6S(b1-4)[Fuc(a1-3)]GlcNAc
# In short: as §1
binder,measurement,setting,value
B1,glycan array binding signal (z-score),[1],1.98
same,glycan array binding signal (z-score),[2],0.664
same,glycan array binding signal (z-score),[3],1.14
same,glycan array binding signal (z-score),[4],-0.242
same,glycan array binding signal (z-score),[5],-0.947
same,glycan array binding signal (z-score),[6],-0.784
same,glycan array binding signal (z-score),[7],-0.902
same,glycan array binding signal (z-score),[8],-0.74
same,glycan array binding signal (z-score),[9],0.391
same,glycan array binding signal (z-score),[10],0.093
same,glycan array binding signal (z-score),[11],-2.35
same,glycan array binding signal (z-score),[12],-0.344
same,glycan array binding signal (z-score),[13],0.544
same,glycan array binding signal (z-score),[14],-1.08
same,glycan array binding signal (z-score),[15],1.41
same,glycan array binding signal (z-score),[16],0.339
same,glycan array binding signal (z-score),[17],-1.43
same,glycan array binding signal (z-score),[18],0.228
same,glycan array binding signal (z-score),[19],1.22
same,glycan array binding signal (z-score),[20],-1.17
same,glycan array binding signal (z-score),[21],0.176
same,glycan array binding signal (z-score),[22],-0.773
same,glycan array binding signal (z-score),[23],-0.355

# A different layout for some results above:
binder	measurement	setting	value
B1	glycan array binding signal (z-score)	[4]	-0.242
same	glycan array binding signal (z-score)	[9]	0.391
